Measured values: publication PMC2854724, “In Vitro Screening of Environmental Chemicals for Targeted Testing Prioritization: The ToxCast Project” (Environmental Health Perspectives, 2009)

What was measured:
[1] = system: direct targets (130 direct assay measurements for human targets); assay: Number of hits in direct (cell-free HTS) assays for human targets; assay type: biochemical; conditions: 30-μM cutoff for activity; out of 130 direct human assay measurements
33 minimal pathways = assay: Pathway perturbation scores against the minimal set of 33 pathways; set-up: species or system human; conditions: 30-μM cutoff; out of 33 minimal pathways; activity in at least five pathway-mapped assays needed

| Compound | Number of direct hits [1] | Number of minimal pathways hit (33 minimal pathways) |
| --- | --- | --- |
| O=S(=O)(O)C(F)(F)C(F)(F)C(F)(F)C(F)(F)C(F)(F)C(F)(F)C(F)(F)C(F)(F)F [PFOS, perfluorooctane sulfonic acid] | at least 20 |  |
| c1cc[c]([Sn+]([c]2ccccc2)[c]2ccccc2)cc1 [fentin] | at least 20 |  |
| O=[N+]([O-])c1cc(C(F)(F)F)c(Cl)c([N+](=O)[O-])c1Nc1ncc(C(F)(F)F)cc1Cl [fluazinam] |  | at least 20 |
| C=CCOC(Cn1ccnc1)c1ccc(Cl)cc1Cl (centres unmarked) [imazalil] | at least 20 |  |
| S=C([S-])NCCNC(=S)[S-].[Mn+2] [maneb] | at least 20 | at least 20 |
| CN(C)[C@@H]1C(O)=C(C(N)=O)C(=O)[C@@]2(O)C(O)=C3C(=O)c4c(O)cccc4[C@@](C)(O)[C@H]3[C@H](O)[C@@H]12 [oxytetracycline dihydrate] | at least 20 |  |
| COC(=O)N(OC)c1ccccc1COc1ccn(-c2ccc(Cl)cc2)n1 [pyraclostrobin] |  | at least 20 |
| emamectin benzoate | at least 20 |  |
| mancozeb | at least 20 | at least 20 |
| metiram-zinc | at least 20 | at least 20 |
| milbemectin | at least 20 |  |
